The structures given here were assigned with low confidence; some may be wrong.
Key:
human wild type-CFTR [1] = target: T1, human wild type-CFTR (Homo sapiens, UniProt P13569); assay: Short-circuit current measurement; format: cell-based; conditions: read-out: Short-circuit current measurement (EC50) Concentration range; FRT cells expressing human wild type-CFTR; Forskolin 20 μM signal used as 100% activity
Human recombinant PDE4D2 = Human recombinant PDE4D2 (Homo sapiens, UniProt Q08499); assay: Human phosphodiesterase 4 (PDE4) inhibition, PDE4D2; conditions: 10 uM test compound
Human recombinant PDE4C1 = Human recombinant PDE4C1 (Homo sapiens, UniProt Q08493); assay: Human phosphodiesterase 4 (PDE4) inhibition, PDE4C1; conditions: 10 uM test compound
human wild type-CFTR [2] = target: T1, human wild type-CFTR; assay: Cell-based YFP assay; conditions: read-out: Cell-based YFP Assay (EC50) Concentration Range; CHO-K1 cells expressing human wild type-CFTR and YFP-H148Q/I152L; forskolin 20 μM = 100% activity
[3] = Phosphate-buffered saline (PBS) solubility of compounds; format: physicochemical; conditions: PBS pH 7.5, 0.5 mg/mL, vortexed 90 min, filtered, LC-MS/MS
Protocol: PBS solutions (pH 7.5) were prepared according to the following compositions and stored at 4° C. Test compounds were dissolved in PBS (pH 7.5) at 0.5 mg/mL and vortexed for 90 min. The PBS solution was sequentially filtered through a 0.45, 1.2, […] syringe filter. Concentration of test compounds were determined using LC-MS/MS with appropriate dilution of the samples.

Chains of the proteins cited; added tags and fusions are not shown. Residues count along the entry.
UniProt P13569, whole entry: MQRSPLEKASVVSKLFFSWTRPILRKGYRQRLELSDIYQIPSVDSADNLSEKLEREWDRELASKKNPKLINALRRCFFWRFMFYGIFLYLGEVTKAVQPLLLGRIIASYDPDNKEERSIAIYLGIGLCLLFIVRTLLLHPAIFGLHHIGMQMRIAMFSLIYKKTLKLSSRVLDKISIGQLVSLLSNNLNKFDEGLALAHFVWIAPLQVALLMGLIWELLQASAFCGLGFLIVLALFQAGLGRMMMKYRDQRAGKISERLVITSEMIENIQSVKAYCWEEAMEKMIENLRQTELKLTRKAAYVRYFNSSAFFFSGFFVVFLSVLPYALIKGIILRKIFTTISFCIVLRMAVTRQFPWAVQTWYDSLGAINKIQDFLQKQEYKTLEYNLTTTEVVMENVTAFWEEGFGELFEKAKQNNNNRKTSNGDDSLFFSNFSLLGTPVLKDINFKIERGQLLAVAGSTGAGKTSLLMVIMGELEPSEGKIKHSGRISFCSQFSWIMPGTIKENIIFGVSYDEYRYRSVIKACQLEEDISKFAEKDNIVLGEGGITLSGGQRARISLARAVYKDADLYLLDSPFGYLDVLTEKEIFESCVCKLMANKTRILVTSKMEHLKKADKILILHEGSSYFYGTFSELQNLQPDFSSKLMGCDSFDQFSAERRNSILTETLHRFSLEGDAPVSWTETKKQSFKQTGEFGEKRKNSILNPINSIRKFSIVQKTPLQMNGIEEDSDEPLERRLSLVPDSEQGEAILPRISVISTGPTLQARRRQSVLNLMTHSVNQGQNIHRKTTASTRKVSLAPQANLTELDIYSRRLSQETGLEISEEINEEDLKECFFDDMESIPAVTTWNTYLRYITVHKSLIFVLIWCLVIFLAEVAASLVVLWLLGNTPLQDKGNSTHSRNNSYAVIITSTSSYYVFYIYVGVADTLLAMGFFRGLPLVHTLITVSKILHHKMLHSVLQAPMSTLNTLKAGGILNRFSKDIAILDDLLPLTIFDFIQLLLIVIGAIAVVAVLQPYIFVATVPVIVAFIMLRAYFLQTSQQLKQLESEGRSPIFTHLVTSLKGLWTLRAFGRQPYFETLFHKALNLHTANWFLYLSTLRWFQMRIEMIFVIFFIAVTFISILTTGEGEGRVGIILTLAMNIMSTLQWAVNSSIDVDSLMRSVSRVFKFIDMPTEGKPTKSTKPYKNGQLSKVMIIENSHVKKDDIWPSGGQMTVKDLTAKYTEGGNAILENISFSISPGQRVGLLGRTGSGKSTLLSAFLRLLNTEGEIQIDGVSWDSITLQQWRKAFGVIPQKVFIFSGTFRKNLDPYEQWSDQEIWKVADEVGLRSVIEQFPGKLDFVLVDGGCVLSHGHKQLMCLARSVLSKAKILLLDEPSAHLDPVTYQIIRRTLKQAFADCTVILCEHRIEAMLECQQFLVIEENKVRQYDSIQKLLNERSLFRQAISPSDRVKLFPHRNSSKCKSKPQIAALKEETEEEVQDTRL
UniProt Q08499, 303-809 limits assumed: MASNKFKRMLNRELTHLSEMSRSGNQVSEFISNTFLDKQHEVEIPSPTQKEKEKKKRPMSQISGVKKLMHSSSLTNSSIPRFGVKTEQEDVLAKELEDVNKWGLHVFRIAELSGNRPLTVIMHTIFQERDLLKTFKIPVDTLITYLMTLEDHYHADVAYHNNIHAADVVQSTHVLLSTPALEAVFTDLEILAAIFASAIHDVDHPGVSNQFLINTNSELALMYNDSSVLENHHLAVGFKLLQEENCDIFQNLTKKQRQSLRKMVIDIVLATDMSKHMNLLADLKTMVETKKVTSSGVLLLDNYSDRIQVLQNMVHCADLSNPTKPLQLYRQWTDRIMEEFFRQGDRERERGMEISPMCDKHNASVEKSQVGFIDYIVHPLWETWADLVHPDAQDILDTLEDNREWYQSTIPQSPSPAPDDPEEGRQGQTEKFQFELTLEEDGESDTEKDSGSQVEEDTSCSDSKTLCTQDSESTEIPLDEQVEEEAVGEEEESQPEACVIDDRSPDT
UniProt Q08493, whole entry: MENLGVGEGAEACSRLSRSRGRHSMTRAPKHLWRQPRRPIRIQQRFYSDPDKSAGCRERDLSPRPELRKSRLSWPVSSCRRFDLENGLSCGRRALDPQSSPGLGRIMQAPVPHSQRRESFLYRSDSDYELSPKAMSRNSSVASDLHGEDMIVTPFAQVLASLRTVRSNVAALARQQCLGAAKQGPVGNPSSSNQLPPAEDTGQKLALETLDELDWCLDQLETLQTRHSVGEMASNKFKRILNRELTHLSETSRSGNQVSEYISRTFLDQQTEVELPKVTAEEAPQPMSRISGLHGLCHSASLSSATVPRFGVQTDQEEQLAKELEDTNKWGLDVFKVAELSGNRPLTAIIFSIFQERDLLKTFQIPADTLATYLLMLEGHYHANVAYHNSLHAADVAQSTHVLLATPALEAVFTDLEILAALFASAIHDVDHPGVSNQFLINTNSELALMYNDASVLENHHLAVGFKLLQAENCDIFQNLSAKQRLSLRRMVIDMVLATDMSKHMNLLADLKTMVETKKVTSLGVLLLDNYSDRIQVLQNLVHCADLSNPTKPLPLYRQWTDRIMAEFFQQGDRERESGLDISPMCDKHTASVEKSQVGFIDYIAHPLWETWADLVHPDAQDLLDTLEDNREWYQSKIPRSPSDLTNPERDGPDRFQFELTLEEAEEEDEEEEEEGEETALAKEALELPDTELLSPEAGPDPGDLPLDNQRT
UniProt P27815, 1-647 isoform 4: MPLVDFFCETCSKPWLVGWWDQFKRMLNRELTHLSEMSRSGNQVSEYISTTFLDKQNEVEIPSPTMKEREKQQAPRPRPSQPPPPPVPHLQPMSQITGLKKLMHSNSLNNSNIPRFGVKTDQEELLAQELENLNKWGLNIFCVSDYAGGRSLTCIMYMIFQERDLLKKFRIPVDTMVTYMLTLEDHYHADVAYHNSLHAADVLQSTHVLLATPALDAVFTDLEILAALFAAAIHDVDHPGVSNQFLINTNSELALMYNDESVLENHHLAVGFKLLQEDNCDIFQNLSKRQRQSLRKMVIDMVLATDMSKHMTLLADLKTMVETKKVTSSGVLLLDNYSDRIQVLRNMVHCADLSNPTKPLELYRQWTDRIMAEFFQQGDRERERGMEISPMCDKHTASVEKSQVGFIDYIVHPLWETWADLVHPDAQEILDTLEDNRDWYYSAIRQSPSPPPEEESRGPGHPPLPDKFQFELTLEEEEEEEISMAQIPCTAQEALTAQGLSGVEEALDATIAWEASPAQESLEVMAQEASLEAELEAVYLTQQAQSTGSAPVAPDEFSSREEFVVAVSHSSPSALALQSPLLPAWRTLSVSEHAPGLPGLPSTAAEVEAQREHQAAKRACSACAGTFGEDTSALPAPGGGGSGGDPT
UniProt Q07343, whole entry: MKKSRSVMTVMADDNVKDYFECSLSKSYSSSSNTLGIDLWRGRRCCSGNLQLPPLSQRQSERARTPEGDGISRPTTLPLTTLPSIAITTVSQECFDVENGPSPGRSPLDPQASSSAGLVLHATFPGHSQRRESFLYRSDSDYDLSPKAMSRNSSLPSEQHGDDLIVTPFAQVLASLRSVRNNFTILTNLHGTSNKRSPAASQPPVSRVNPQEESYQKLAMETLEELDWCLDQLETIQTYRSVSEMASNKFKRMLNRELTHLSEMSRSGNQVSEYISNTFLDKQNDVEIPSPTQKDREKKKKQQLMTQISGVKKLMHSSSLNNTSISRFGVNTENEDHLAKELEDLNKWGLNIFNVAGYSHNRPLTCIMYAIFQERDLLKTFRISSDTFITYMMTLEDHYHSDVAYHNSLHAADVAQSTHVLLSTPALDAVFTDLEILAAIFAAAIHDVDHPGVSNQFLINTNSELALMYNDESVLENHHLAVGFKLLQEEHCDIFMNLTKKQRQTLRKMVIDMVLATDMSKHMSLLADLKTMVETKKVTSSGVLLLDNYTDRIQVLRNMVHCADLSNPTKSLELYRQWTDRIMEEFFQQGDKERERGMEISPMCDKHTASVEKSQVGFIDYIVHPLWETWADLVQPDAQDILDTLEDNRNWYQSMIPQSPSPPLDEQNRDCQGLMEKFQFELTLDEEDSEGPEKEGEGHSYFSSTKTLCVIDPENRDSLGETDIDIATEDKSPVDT

[4] = target: Human recombinant PDE4A1A (Homo sapiens, UniProt P27815); assay: Human phosphodiesterase 4 (PDE4) inhibition, PDE4A1A; conditions: 10 uM test compound
C57BL/6 female mice = assay: Scopolamine induced tear volume reduction model; format: in vivo, mouse; conditions: scopolamine-injected mice, ophthalmic solution topically on both eyes 3 times a day, phenol red thread; average if evaluated twice
[5] = target: Human recombinant PDE4B 1 (Homo sapiens, UniProt Q07343); assay: Human phosphodiesterase 4 (PDE4) inhibition, PDE4B 1; conditions: 10 uM test compound

COc1ccc(-c2ccnc3cc(C(=O)NC45CC(C(=O)N6CCOCC6)(C4)C5)nn23)cc1OC
EC50 (human wild type-CFTR [1]): > 2 µM
% inhibition range at 10 uM PDE4D2 (Human recombinant PDE4D2): A ((A) refers to ≥80% inhibition)
% inhibition range at 10 uM PDE4C1 (Human recombinant PDE4C1): B ((B) refers to 50%≤inhibition<80%)
EC50 (human wild type-CFTR [2]): 0.2 to 2 µM
Solubility Range [3]: B ((B) refers to 100<B<10,000 ng/mL)
% inhibition range at 10 uM PDE4A1A [4]: A ((A) refers to ≥80% inhibition)
Ratio of tear volume (test compound to vehicle) (C57BL/6 female mice): 1.35
% inhibition range at 10 uM PDE4B1 [5]: A ((A) refers to ≥80% inhibition)

From US20240199623A1 (ILDONG PHARMACEUTICAL CO., LTD., priority 2020, published 2024)
